Laboratory results from paper PMC9967580.

These substances were tested against T1, GAL4-BD-REV (REVOLUTA fused to the GAL4 DNA-binding domain) (Arabidopsis thaliana) (UniProt Q9SE43) (assay: two-hybrid; Matchmaker Gold Yeast Two-Hybrid System; bait as GAL4-BD fusion (pGBKT7) in strain Y2H Gold, prey as GAL4-AD fusion (pGADT7) in strain Y187, mated; serial 1:10 dilutions spotted on DDO control and selective media of increasing stringency (TDO, DDO/X/AbA, QDO, QDO/X, QDO/X/AbA); growth after four to five days at 30 °C).
T1 sequence: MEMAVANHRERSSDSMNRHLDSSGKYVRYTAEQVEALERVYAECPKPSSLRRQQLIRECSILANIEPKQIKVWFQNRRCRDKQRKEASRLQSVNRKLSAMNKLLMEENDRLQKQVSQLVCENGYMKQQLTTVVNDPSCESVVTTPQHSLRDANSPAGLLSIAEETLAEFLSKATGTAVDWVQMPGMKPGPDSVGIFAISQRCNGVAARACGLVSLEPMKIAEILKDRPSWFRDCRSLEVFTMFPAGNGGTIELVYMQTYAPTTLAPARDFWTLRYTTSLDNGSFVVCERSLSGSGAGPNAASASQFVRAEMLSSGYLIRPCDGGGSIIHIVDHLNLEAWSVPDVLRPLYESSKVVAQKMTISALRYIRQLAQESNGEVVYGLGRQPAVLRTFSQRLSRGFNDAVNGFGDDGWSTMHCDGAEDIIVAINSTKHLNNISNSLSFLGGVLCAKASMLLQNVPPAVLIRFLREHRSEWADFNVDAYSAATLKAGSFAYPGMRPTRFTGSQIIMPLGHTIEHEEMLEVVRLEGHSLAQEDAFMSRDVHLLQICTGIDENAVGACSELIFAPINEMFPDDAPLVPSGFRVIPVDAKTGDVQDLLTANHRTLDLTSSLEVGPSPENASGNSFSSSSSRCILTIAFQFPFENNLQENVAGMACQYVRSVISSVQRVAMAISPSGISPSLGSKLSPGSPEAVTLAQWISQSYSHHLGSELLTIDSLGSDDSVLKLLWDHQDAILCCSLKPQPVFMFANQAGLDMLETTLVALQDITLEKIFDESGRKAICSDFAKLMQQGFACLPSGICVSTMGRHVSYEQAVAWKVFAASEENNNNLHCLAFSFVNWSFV

binding | Substance
binds | GAL4-AD-JAZ1 (Arabidopsis thaliana)
binds | GAL4-AD-JAZ2 (Arabidopsis thaliana)
binds | GAL4-AD-JAZ5 (Arabidopsis thaliana)

No constants are given. Whether binding was seen depends on the method and setting. A result given as binding can be weak or reduced; the word gives no strength. Where a sequence is shown, tags or fusion partners need not be part of it.
